Measured values reported in article PMC12569377, “P-Rex1 limits the agonist-induced internalization of GPCRs independently of its Rac-GEF activity” (Cell Reports, 2025).
These are yes or no findings as the source states them, for the method shown. In cells and extracts the contact can be indirect. Some binding calls cover weakened binding; strength is not graded here.

Sequences of proteins named here, by UniProt entry; tags and fusion partners are left off. A change or cut given only in a name is not applied to a line headed by its entry. Residues count along the entry.
UniProt P25098: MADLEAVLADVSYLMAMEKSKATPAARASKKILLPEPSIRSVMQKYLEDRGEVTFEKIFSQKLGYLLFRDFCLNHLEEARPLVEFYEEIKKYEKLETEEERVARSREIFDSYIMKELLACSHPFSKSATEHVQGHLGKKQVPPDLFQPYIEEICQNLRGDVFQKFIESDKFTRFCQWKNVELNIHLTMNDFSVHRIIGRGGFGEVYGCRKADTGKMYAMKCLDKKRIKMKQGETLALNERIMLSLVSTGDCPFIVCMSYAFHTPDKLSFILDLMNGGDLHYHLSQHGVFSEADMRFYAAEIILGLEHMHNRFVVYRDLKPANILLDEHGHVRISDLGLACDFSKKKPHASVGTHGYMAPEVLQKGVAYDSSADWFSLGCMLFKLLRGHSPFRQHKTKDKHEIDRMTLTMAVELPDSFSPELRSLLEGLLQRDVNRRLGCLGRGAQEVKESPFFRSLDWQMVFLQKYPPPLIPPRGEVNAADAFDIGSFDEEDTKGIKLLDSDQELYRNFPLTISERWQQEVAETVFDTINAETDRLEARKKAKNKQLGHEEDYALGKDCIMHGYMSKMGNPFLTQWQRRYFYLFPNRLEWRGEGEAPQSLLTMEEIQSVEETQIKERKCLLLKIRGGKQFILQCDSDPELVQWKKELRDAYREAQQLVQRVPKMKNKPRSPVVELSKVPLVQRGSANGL
flag-Grk2-iCAT (aa 185–543): residues 185-543 of P25098
UniProt Q8TCU6: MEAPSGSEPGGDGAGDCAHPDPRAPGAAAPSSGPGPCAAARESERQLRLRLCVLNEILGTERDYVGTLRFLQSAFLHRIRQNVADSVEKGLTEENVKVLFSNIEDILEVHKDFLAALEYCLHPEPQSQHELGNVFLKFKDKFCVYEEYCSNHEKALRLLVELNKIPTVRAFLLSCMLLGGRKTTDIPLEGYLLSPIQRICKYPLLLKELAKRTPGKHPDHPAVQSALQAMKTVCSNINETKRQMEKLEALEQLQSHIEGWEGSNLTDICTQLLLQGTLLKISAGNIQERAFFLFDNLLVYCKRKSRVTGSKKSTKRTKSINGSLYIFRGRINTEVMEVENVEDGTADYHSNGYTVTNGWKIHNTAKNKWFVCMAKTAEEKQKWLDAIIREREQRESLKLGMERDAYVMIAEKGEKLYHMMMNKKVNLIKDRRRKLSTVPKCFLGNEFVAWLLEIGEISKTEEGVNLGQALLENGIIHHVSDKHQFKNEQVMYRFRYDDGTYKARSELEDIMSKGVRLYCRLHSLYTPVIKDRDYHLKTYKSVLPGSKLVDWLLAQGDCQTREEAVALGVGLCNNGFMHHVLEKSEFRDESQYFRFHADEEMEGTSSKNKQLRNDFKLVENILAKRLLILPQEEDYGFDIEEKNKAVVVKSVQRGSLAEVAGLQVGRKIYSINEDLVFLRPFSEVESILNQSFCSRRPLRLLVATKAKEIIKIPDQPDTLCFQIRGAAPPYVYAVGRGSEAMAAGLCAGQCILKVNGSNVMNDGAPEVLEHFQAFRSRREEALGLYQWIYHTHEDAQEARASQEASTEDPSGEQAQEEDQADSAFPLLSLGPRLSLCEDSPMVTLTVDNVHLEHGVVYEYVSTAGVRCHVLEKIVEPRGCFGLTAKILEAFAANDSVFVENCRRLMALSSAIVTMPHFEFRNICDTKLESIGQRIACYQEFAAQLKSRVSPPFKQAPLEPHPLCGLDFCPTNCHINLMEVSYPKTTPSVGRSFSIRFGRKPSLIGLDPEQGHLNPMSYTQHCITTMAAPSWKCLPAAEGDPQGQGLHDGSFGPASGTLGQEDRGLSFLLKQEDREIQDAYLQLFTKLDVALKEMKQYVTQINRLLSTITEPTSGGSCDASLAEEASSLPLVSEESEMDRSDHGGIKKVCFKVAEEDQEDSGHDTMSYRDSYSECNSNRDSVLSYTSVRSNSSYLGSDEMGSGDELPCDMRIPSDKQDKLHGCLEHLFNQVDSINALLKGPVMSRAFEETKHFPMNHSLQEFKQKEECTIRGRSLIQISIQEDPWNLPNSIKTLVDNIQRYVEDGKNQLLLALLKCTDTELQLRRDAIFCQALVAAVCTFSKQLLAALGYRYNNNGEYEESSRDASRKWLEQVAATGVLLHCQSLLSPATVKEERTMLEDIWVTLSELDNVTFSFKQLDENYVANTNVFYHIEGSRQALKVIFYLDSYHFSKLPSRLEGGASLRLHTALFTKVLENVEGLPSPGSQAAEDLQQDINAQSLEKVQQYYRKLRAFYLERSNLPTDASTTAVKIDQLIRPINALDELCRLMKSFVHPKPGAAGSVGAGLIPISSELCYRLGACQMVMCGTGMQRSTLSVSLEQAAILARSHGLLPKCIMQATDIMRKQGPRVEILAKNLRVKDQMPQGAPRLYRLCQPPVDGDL

Columns and labels:
flag-Grk2 (full-length) = flag-Grk2 (full-length) (UniProt P25098); test: co-IP; HEK293-S1PR1 cells expressing myc-P-Rex1 and/or flag-Grk2 or flag-Grk2-iCAT, serum starved 14 h; total lysate (50 mM HEPES pH 7.2, 150 mM NaCl, 1% NP-40) immunoprecipitated with magnetic anti-flag agarose, 60 min at 4°C, 4 washes; western blot
[1] = molecular target: flag-Grk2-iCAT (aa 185–543) (UniProt P25098); test: as above

myc-P-Rex1 (from UniProt Q8TCU6 1-1659)
binding (flag-Grk2 (full-length)): binds | binding [1]: no binding
